{"source": "PubChem BioAssay AID1671195 (Yale University, 2021)", "screen": "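Knockdowns that increase or decrease uptake of fluorescent LDL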 (primary screen)", "system": "human Huh7 hepatoma cells", "reagents": "siRNA pool against human genes, 18 nM", "timing": "about 2 to 2.5 days of knockdown, then 8 h LDL uptake", "treatment": "DiI-labelled LDL at 30 µg/ml for 8 h, in lipoprotein-deficient serum medium", "detection": "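Fluorescent LDL signal imaged in cells, scaled to the plate median, robust z-score for each replicate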", "scale": "robust z-score: higher = more LDL uptake after knockdown", "hit rule": "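a gene counts as active if at least two replicate z-scores exceed ±2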", "note": "Here is one part, drawn at random, of about 22,000 deposited reagents. About 1,510 of them (6.9%) count as active. 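Active includes knockdowns raising or lowering LDL uptake; positive z-scores mean more uptake, negative mean less.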 Entries without a mark were called inactive."}
{"gene": "CBX2 (chromobox 2)", "robust z-score, replicate 1": -1.99, "robust z-score, replicate 2": -0.924, "robust z-score, replicate 3": -1.37}
{"gene": "TTC21A (tetratricopeptide repeat domain 21A)", "robust z-score, replicate 1": 0.41, "robust z-score, replicate 2": 0.627, "robust z-score, replicate 3": 0.203}
{"gene": "UBAC1 (UBA domain containing 1)", "robust z-score, replicate 1": -0.553, "robust z-score, replicate 2": 2.34, "robust z-score, replicate 3": 0.657}
{"gene": "DHX29 (DExH-box helicase 29)", "robust z-score, replicate 1": -0.692, "robust z-score, replicate 2": -0.465, "robust z-score, replicate 3": 0.603}
{"gene": "NF1 (neurofibromin 1)", "robust z-score, replicate 1": -0.971, "robust z-score, replicate 2": -0.983, "robust z-score, replicate 3": -1.48}
{"gene": "LOC400923 (retired record)", "robust z-score, replicate 1": "2.94 (active)", "robust z-score, replicate 2": 2.99, "robust z-score, replicate 3": 3.13}
{"gene": "LINC02912 (long independently transcribed non-coding RNA 2912)", "robust z-score, replicate 1": -1.67, "robust z-score, replicate 2": -1.94, "robust z-score, replicate 3": -1.75}
{"gene": "MIMS1 (mitochondrial inner membrane structural 1)", "robust z-score, replicate 1": -1.34, "robust z-score, replicate 2": -1.6, "robust z-score, replicate 3": -1.26}
{"gene": "KLC3 (kinesin light chain 3)", "robust z-score, replicate 1": 1.2, "robust z-score, replicate 2": -0.356, "robust z-score, replicate 3": 0.476}
{"gene": "ZKSCAN8 (zinc finger with KRAB and SCAN domains 8)", "robust z-score, replicate 1": -0.271, "robust z-score, replicate 2": -0.628, "robust z-score, replicate 3": -0.452}
{"gene": "LOC440069 (retired record)", "robust z-score, replicate 1": 0.0942, "robust z-score, replicate 2": 0.249, "robust z-score, replicate 3": -0.112}
{"gene": "PRR7 (proline rich 7, synaptic)", "robust z-score, replicate 1": 0.885, "robust z-score, replicate 2": 0.0834, "robust z-score, replicate 3": 0.57}
{"gene": "ANAPC2 (anaphase promoting complex subunit 2)", "robust z-score, replicate 1": -0.0437, "robust z-score, replicate 2": -1.36, "robust z-score, replicate 3": -1.19}
{"gene": "NCDN (neurochondrin)", "robust z-score, replicate 1": -0.743, "robust z-score, replicate 2": 0.678, "robust z-score, replicate 3": -0.635}
{"gene": "PPP6R3 (protein phosphatase 6 regulatory subunit 3)", "robust z-score, replicate 1": "2.42 (active)", "robust z-score, replicate 2": 1.94, "robust z-score, replicate 3": 0.797}
{"gene": "LOC392084 (retired record)", "robust z-score, replicate 1": 0.136, "robust z-score, replicate 2": -0.586, "robust z-score, replicate 3": -0.508}
{"gene": "ABCF3 (ATP binding cassette subfamily F member 3)", "robust z-score, replicate 1": -0.544, "robust z-score, replicate 2": -0.811, "robust z-score, replicate 3": -0.451}
{"gene": "REC8 (REC8 meiotic cohesin complex component)", "robust z-score, replicate 1": -1.25, "robust z-score, replicate 2": -1.92, "robust z-score, replicate 3": 0.218}
{"gene": "PACS2 (phosphofurin acidic cluster sorting protein 2)", "robust z-score, replicate 1": 1.04, "robust z-score, replicate 2": -0.67, "robust z-score, replicate 3": 6.33}
{"gene": "PLPPR3 (phospholipid phosphatase related 3)", "robust z-score, replicate 1": -1.72, "robust z-score, replicate 2": -1.76, "robust z-score, replicate 3": -1.52}
{"gene": "CUL4B (cullin 4B)", "robust z-score, replicate 1": 0.401, "robust z-score, replicate 2": 1.57, "robust z-score, replicate 3": 0.329}
{"gene": "LOC389300 (retired record)", "robust z-score, replicate 1": 0.604, "robust z-score, replicate 2": 0.241, "robust z-score, replicate 3": 0.369}
{"gene": "RPL23AP8 (ribosomal protein L23a pseudogene 8)", "robust z-score, replicate 1": 0.386, "robust z-score, replicate 2": 0.384, "robust z-score, replicate 3": 0.448}
{"gene": "MOB1B (MOB kinase activator 1B)", "robust z-score, replicate 1": 1.3, "robust z-score, replicate 2": 0.0613, "robust z-score, replicate 3": -0.603}
{"gene": "RIC1 (RIC1 partner of RAB6A GEF complex)", "robust z-score, replicate 1": "0.554 (active)", "robust z-score, replicate 2": 2.18, "robust z-score, replicate 3": 2.45}
{"gene": "LIX1L (limb and CNS expressed 1 like)", "robust z-score, replicate 1": -0.13, "robust z-score, replicate 2": -0.275, "robust z-score, replicate 3": 0.565}
{"gene": "SMIM32 (small integral membrane protein 32)", "robust z-score, replicate 1": -0.108, "robust z-score, replicate 2": 0.155, "robust z-score, replicate 3": 0.023}
{"gene": "OGN (osteoglycin)", "robust z-score, replicate 1": -0.0167, "robust z-score, replicate 2": 0.549, "robust z-score, replicate 3": -0.374}
{"gene": "MBNL3 (muscleblind like splicing regulator 3)", "robust z-score, replicate 1": -0.197, "robust z-score, replicate 2": 0.0251, "robust z-score, replicate 3": 0.07}
{"gene": "PLK4 (polo like kinase 4)", "robust z-score, replicate 1": 1.56, "robust z-score, replicate 2": 1.15, "robust z-score, replicate 3": 0.268}

A stretch from the list above, as a working copy:
{"gene": "MIMS1 (mitochondrial inner membrane structural 1)", "robust z-score, replicate 1": -1.34, "robust z-score, replicate 2": -1.6, "robust z-score, replicate 3": -1.26}
{"gene": "KLC3 (kinesin light chain 3)", "robust z-score, replicate 1": 1.2, "robust z-score, replicate 2": -0.356, "robust z-score, replicate 3": 0.476}
{"gene": "ZKSCAN8 (zinc finger with KRAB and SCAN domains 8)", "robust z-score, replicate 1": -0.271, "robust z-score, replicate 2": -0.628, "robust z-score, replicate 3": -0.452}
